No constants are given. Whether binding was seen depends on the method and setting. In cells and extracts the contact can be indirect. Some binding calls cover weakened binding; strength is not graded here. Sequences can lack the tags named with a protein.
Target: T1, human MAGED2 full length with C-terminal Flag tag (MAGED2-Flag) (human) (UniProt Q9UNF1)
T1 sequence: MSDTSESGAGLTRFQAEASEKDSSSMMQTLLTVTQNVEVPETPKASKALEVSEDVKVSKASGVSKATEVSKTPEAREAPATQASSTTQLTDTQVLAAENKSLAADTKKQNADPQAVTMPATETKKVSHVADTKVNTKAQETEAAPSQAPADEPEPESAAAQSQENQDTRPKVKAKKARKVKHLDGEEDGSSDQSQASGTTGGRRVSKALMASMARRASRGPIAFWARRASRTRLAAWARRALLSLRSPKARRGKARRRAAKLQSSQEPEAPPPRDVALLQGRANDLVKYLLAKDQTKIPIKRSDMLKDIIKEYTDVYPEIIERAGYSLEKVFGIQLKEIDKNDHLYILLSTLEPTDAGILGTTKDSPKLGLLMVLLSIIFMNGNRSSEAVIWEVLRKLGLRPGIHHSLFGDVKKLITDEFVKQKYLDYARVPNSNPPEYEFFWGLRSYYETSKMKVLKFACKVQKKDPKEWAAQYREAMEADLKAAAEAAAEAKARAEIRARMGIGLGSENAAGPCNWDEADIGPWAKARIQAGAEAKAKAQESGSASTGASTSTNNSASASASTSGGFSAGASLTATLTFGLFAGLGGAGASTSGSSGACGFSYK
Assay: co-IP

Row | Substance | binding
1 | SARS-CoV-2 nsp9 (from UniProt P0DTD1) | binds
2 | SARS-CoV-2 nsp12 (from UniProt P0DTD1) (enzyme) | binds
